# Article PMC6857042
# Protein sequences, listed by entry. Tags and fused reporters are not part of them.
# UniProt Q9HB71: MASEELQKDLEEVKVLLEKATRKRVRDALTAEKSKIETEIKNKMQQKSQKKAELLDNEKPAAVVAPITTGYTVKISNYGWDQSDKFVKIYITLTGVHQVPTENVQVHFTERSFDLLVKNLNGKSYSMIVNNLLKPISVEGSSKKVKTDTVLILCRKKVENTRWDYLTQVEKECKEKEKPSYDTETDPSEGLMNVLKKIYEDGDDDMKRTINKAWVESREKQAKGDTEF
# UniProt Q9UNE7: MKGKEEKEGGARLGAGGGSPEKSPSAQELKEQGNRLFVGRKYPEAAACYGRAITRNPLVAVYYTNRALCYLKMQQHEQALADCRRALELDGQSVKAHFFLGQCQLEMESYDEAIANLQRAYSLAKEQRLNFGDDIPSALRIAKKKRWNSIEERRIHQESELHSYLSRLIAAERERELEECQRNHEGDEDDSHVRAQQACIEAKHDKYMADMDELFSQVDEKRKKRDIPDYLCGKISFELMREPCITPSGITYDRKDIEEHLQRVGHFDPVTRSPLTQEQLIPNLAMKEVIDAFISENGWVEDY
# Results are given in words; binding and its absence hold for the method and conditions named. Binding seen in cells or lysates may run through a third protein. Here binding means that the protein was enriched with, or labelled near, the bait; the list need not be complete.
# B1: endogenous RNF41 (293T) (protein, UniProt Q9H4P4 1-317)
# chain: MGYDVTRFQGDVDEDLICPICSGVLEEPVQAPHCEHAFCNACITQWFSQQQTCPVDRSVVTVAHLRPVPRIMRNMLSKLQIACDNAVFGCSAVVRLDNLMSHLSDCEHNPKRPVTCEQGCGLEMPKDELPNHNCIKHLRSVVQQQQTRIAELEKTSAEHKHQLAEQKRDIQLLKAYMRAIRSVNPNLQNLEETIEYNEILEWVNSLQPARVTRWGGMISTPDAVLQAVIKRSLVESGCPASIVNELIENAHERSWPQGLATLETRQMNRRYYENYVAKRIPGKQAVVVMACENQHMGDDMVQEPGLVMIFAHGVEEI
# B2: TRAF3IP1 (protein, UniProt Q8TDR0 1-691)
# chain: MNAAVVRRTQEALGKVIRRPPLTEKLLSKPPFRYLHDIITEVIRMTGFMKGLYTDAEMKSDNVKDKDAKISFLQKAIDVVVMVSGEPLLAKPARIVAGHEPERTNELLQIIGKCCLNKLSSDDAVRRVLAGEKGEVKGRASLTSRSQELDNKNVREEESRVHKNTEDRGDAEIKERSTSRDRKQKEELKEDRKPREKDKDKEKAKENGGNRHREGERERAKARARPDNERQKDRGNRERDRDSERKKETERKSEGGKEKERLRDRDRERDRDKGKDRDRRRVKNGEHSWDLDREKNREHDKPEKKSASSGEMSKKLSDGTFKDSKAETETEISTRASKSLTTKTSKRRSKNSVEGRKEDNISAKSLDSIVSGINNEPNQETTTSEIGTKEANINSTSISDDNSASLRCENIQPNPTEKQKGDSTSDAEGDAGPAGQDKSEVPETPEIPNELSSNIRRIPRPGSARPAPPRVKRQDSMEALQMDRSGSGKTVSNVITESHNSDNEEDDQFVVEAAPQLSEMSEIEMVTAVELEEEEKHGGLVKKILETKKDYEKLQQSPKPGEKERSLFESAWKKEKDIVSKEIEKLRTSIQTLCKSALPLGKIMDYIQEDVDAMQNELQMWHSENRQHAEALQQEQRITDCAVEPLKAELAELEQLIKDQQDKICAVKANILKNEEKIQKMVYSINLTSRR
# Target: SFB-tagged CACYBP (calcyclin-binding protein) (human) (UniProt Q9HB71)
# Test: affinity purification with mass spectrometry; two-step TAP of SFB-CACYBP from transfected 293T cells (Streptavidin Sepharose, biotin elution, S-protein agarose) in NETN buffer at 4°C; SDS-PAGE, silver staining, bands excised, MS
row,binding,Molecule
1,binds,STUB1 (from UniProt Q9UNE7 1-303)
2,binds,B1
3,binds,B2
